From the supplement of paper PMC6078165
Values are relative to the signal before dosing, not to a vehicle control; the signal also falls without drug.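 Fibroblast labels name human fibroblasts: mostly primary ones from tissues such as uterus (C12385, HUF), lung (H6013), bone (Hs27A), adrenal (HADF) and skin (WS1), plus mammary HMF and breast cancer-associated Hs343T. The cancer cells are basal-like or mesenchymal-like triple-negative breast cancer lines. The paper calls a changed response a hit when it shifts by more than 3x the replicate standard deviation. The tissue of the other fibroblasts is not given here.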

Tested on: Hs578T
Test: relative JC-1 red fluorescence (viability) vs pre-drug, coculture with fibroblast (fraction); higher = more viable cancer cells
Experimental: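 JC-1 labelled TNBC cells cocultured 1:1 (1,500 cells each) with CellTrace Violet stained primary or stromal fibroblasts in 384-well plates in FluoroBrite medium, treated with one of 42 anticancer drugs at 0.1, 1, 10 or 100 uM. JC-1 red fluorescence (mitochondrial integrity in cancer cells only) was read by plate reader every 8 h for 72 h. Values are normalised to each well's pre-drug value. The stock of one drug was tenfold lower, so its dose labels may be too high.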

CS(=O)(=O)CCNCc1ccc(-c2ccc3ncnc(Nc4ccc(OCc5cccc(F)c5)c(Cl)c4)c3c2)o1 [Lapatinib]
relative JC-1 red fluorescence
Conditions | 8 h | 16 h | 24 h | 32 h | 40 h | 48 h | 56 h | 64 h | 72 h
0.1 µM | 0.89944 | 0.806 | 0.788 | 0.771 | 0.73 | 0.695 | 0.678 | 0.641 | 0.625
1 µM | 0.9385 | 0.866 | 0.804 | 0.761 | 0.69758 | 0.6496 | 0.6309 | 0.583 | 0.552

relative JC-1 red fluorescence
Conditions | 8 h | 16 h | 24 h | 32 h | 40 h | 48 h | 56 h | 64 h | 72 h
0.1 µM, coculture fibroblast: C12385 | 0.82787 | 0.7456 | 0.7 | 0.62 | 0.5696 | 0.5488 | 0.532 | 0.537 | 0.541
0.1 µM, coculture fibroblast: H6013 | 0.9034 | 0.8783 | 0.83075 | 0.8129 | 0.786 | 0.773 | 0.759 | 0.762 | 0.738
0.1 µM, coculture fibroblast: H6019 | 0.8135 | 0.714 | 0.703 | 0.638 | 0.605 | 0.5836 | 0.5527 | 0.5281 | 0.5109
0.1 µM, coculture fibroblast: H6076 | 0.92276 | 0.8439 | 0.8058 | 0.81 | 0.789 | 0.805 | 0.797 | 0.809 | 0.819
0.1 µM, coculture fibroblast: H6231 | 0.902 | 0.826 | 0.747 | 0.718 | 0.657 | 0.63 | 0.583 | 0.558 | 0.541
0.1 µM, coculture fibroblast: HADF | 0.899 | 0.867 | 0.7984 | 0.757 | 0.7195 | 0.698 | 0.668 | 0.663 | 0.637
0.1 µM, coculture fibroblast: HCFa | 0.8986 | 0.862 | 0.8 | 0.763 | 0.704 | 0.68 | 0.646 | 0.628 | 0.585
0.1 µM, coculture fibroblast: HCPF | 0.9537 | 0.86559 | 0.792 | 0.764 | 0.715 | 0.69358 | 0.657 | 0.629 | 0.6117
0.1 µM, coculture fibroblast: HHSteC | 0.921 | 0.848 | 0.791 | 0.758 | 0.709 | 0.674 | 0.642 | 0.627 | 0.599
0.1 µM, coculture fibroblast: HMF | 0.921 | 0.85 | 0.798 | 0.786 | 0.742 | 0.73 | 0.685 | 0.677 | 0.665
0.1 µM, coculture fibroblast: HPFa | 0.956 | 0.9 | 0.81 | 0.749 | 0.697 | 0.6604 | 0.6162 | 0.581 | 0.532
0.1 µM, coculture fibroblast: HUF | 0.8654 | 0.7785 | 0.714 | 0.624 | 0.563 | 0.5287 | 0.498 | 0.49035 | 0.4759
0.1 µM, coculture fibroblast: Hs27A | 0.88 | 0.827 | 0.795 | 0.758 | 0.72 | 0.7106 | 0.672 | 0.662 | 0.622
0.1 µM, coculture fibroblast: Hs343T | 0.94 | 0.8598 | 0.789 | 0.787 | 0.732 | 0.708 | 0.662 | 0.646 | 0.638
0.1 µM, coculture fibroblast: WS1 | 0.8358 | 0.734 | 0.701 | 0.617 | 0.581 | 0.575 | 0.563 | 0.571 | 0.578
1 µM, coculture fibroblast: C12385 | 0.856 | 0.8075 | 0.784 | 0.717 | 0.666 | 0.646 | 0.618 | 0.61 | 0.603
1 µM, coculture fibroblast: H6013 | 0.919 | 0.933 | 0.924 | 0.905 | 0.8771 | 0.845 | 0.809 | 0.79 | 0.753
1 µM, coculture fibroblast: H6019 | 0.827 | 0.7816 | 0.781 | 0.69 | 0.669 | 0.651 | 0.629 | 0.621 | 0.597
1 µM, coculture fibroblast: H6076 | 0.941 | 0.9159 | 0.896 | 0.874 | 0.833 | 0.83 | 0.811 | 0.791 | 0.781
1 µM, coculture fibroblast: H6231 | 0.934 | 0.8514 | 0.833 | 0.795 | 0.738 | 0.717 | 0.678 | 0.654 | 0.629
1 µM, coculture fibroblast: HADF | 0.859 | 0.861 | 0.807 | 0.777 | 0.742 | 0.721 | 0.6888 | 0.678 | 0.646
1 µM, coculture fibroblast: HCFa | 0.8957 | 0.892 | 0.868 | 0.836 | 0.792 | 0.787 | 0.763 | 0.747 | 0.703
1 µM, coculture fibroblast: HCPF | 0.9129 | 0.845 | 0.8302 | 0.7895 | 0.737 | 0.7208 | 0.711 | 0.674 | 0.654
1 µM, coculture fibroblast: HHSteC | 0.894 | 0.868 | 0.818 | 0.775 | 0.735 | 0.712 | 0.678 | 0.651 | 0.613
1 µM, coculture fibroblast: HMF | 0.914 | 0.8856 | 0.842 | 0.82 | 0.761 | 0.722 | 0.6987 | 0.6691 | 0.648
1 µM, coculture fibroblast: HPFa | 0.932 | 0.87 | 0.838 | 0.806 | 0.779 | 0.755 | 0.715 | 0.694 | 0.65
1 µM, coculture fibroblast: HUF | 0.901 | 0.791 | 0.755 | 0.662 | 0.608 | 0.576 | 0.539 | 0.519 | 0.505
1 µM, coculture fibroblast: Hs27A | 0.9214 | 0.9097 | 0.891 | 0.86378 | 0.8097 | 0.793 | 0.758 | 0.76 | 0.707
1 µM, coculture fibroblast: Hs343T | 0.852 | 0.902 | 0.838 | 0.782 | 0.834 | 0.796 | 0.752 | 0.716 | 0.694
1 µM, coculture fibroblast: WS1 | 0.8212 | 0.739 | 0.6864 | 0.61132 | 0.56231 | 0.549 | 0.53 | 0.523 | 0.518
